Reference: PMC8931250, “A SURF4-to-proteoglycan relay mechanism that mediates the sorting and secretion of a tagged variant of sonic hedgehog” (Proceedings of the National Academy of Sciences of the …, 2022)
These are yes or no findings as the source states them, for the method shown. Binding seen in cells or lysates may run through a third protein. Some results given as binding are weak or reduced against the parent protein; the word gives no strength.

Protein sequences, listed by entry. Tags and fused reporters are not part of them. Lines headed by an entry give the natural chain unless they say otherwise; changes in a name come on top. Chains listed by the source or under a name are the forms on record and can include a tag or linker. Residues count along the entry.
3xHA-tagged ShhN (ShhN^1-198-HA) (not stated (human or mouse cDNA cloned)) (Q62226, residues 25-198): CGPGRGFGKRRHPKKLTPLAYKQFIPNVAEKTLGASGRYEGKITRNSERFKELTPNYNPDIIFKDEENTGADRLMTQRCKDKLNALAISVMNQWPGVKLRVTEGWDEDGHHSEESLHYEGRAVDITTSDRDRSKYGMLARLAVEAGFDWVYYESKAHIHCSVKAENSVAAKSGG
HA-tagged CW motif-depleted ShhN (ShhN^Δ33-39-HA) (not stated (human or mouse cDNA cloned)) (Q62226, form named): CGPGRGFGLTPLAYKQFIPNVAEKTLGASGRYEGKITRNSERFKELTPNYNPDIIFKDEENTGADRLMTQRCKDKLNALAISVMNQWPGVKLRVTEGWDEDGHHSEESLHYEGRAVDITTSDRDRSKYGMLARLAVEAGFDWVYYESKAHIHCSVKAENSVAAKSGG
UniProt O15260: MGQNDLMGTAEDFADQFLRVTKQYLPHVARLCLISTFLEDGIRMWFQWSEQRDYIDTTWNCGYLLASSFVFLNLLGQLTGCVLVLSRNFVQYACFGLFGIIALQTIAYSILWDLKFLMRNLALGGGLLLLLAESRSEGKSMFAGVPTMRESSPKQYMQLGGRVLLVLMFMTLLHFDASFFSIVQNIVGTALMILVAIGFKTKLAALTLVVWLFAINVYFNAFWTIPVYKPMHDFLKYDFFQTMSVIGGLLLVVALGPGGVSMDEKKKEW
SURF4^ED-AA-Myc (O15260, form named): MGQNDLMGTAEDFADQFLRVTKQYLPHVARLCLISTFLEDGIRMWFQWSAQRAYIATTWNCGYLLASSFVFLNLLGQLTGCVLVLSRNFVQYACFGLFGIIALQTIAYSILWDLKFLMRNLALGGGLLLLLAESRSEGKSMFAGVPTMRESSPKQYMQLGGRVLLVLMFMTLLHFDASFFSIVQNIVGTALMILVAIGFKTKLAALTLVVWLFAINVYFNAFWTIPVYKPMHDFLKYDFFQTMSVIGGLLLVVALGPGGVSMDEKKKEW

What was measured:
[1] = biological target: HA-tagged CW motif-depleted ShhN (ShhN^Δ33-39-HA) (not stated (human or mouse cDNA cloned)) (UniProt Q62226); experiment: co-IP; co-transfected HEK293T cells treated with 2 mM DSP cross-linker, lysates on beads conjugated with HA antibodies, immunoblot with anti-HA or anti-Myc; for the RUSH construct cells at 20 °C for 2 h with or without biotin, negative control or XYLT2 siRNA
[2] = biological target: SBP-EGFP-ShhN^25-198-HA (mouse) (UniProt Q62226); experiment: as above
[3] = biological target: 3xHA-tagged ShhN (ShhN^1-198-HA) (not stated (human or mouse cDNA cloned)) (UniProt Q62226); experiment: as above
[4] = biological target: SBP-EGFP-ShhN^25-198-HA (mouse) (UniProt Q62226); experiment: co-IP; lysates of co-transfected HEK293T cells incubated with beads conjugated with HA antibodies, immunoblot; no cross-linker mentioned; for the RUSH construct cells with or without biotin and 20 °C incubation
[5] = biological target: 3xHA-tagged ShhN (ShhN^1-198-HA) (not stated (human or mouse cDNA cloned)) (UniProt Q62226); experiment: as above

| binding [1] | binding [2] | binding [3] | binding [4] | binding [5] | Substance |
| --- | --- | --- | --- | --- | --- |
| binds | binds | binds | binds | binds | Myc-tagged SURF4 (SURF4-Myc) (from UniProt O15260 1-269) (receptor) |
|  |  | binds |  |  | SURF4^ED-AA-Myc (from UniProt O15260 1-269) (receptor) |
